Test results published in article PMC8513853.

Assays:
Assay in all cases: proximity labelling
[1] = molecular target: SARS-CoV-2 ORF9b, HA-BASU fusion (SARS-CoV-2), P0DTD2; conditions: remark: other sources report otherwise
[2] = molecular target: T1, SARS-CoV-2 ORF6, HA-BASU fusion (SARS-CoV-2), P0DTC6; conditions: remark: other sources report otherwise
T1 chain: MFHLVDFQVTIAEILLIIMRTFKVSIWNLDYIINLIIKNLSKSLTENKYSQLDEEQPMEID

[3] = molecular target: SARS-CoV-2 ORF6, HA-BASU fusion (SARS-CoV-2) (UniProt P0DTC6)

B1: Mitochondrial Activation of Viral Signaling (MAVS), Q7Z434 1-540 (protein)
chain: MPFAEDKTYKYICRNFSNFCNVDVVEILPYLPCLTARDQDRLRATCTLSGNRDTLWHLFNTLQRRPGWVEYFIAALRGCELVDLADEVASVYQSYQPRTSDRPPDPLEPPSLPAERPGPPTPAAAHSIPYNSCREKEPSYPMPVQETQAPESPGENSEQALQTLSPRAIPRNPDGGPLESSSDLAALSPLTSSGHQEQDTELGSTHTAGATSSLTPSRGPVSPSVSFQPLARSTPRASRLPGPTGSVVSTGTSFSSSSPGLASAGAAEGKQGAESDQAEPIICSSGAEAPANSLPSKVPTTLMPVNTVALKVPANPASVSTVPSKLPTSSKPPGAVPSNALTNPAPSKLPINSTRAGMVPSKVPTSMVLTKVSASTVPTDGSSRNEETPAAPTPAGATGGSSAWLDSSSENRGLGSELSKPGVLASQVDSPFSGCFEDLAISASTSLGMGPCHGPEENEYKSEGTFGIHVAENPSIQLLEGNPGPPADPDGGPRPQADRKFQEREVPCHRPSPGALWLQVAVTGVLVVTLLVVLYRRRLH
[1]
  binding: binds

B2: Nup98, P52948 1-880 (protein)
chain: MFNKSFGTPFGGGTGGFGTTSTFGQNTGFGTTSGGAFGTSAFGSSNNTGGLFGNSQTKPGGLFGTSSFSQPATSTSTGFGFGTSTGTANTLFGTASTGTSLFSSQNNAFAQNKPTGFGNFGTSTSSGGLFGTTNTTSNPFGSTSGSLFGPSSFTAAPTGTTIKFNPPTGTDTMVKAGVSTNISTKHQCITAMKEYESKSLEELRLEDYQANRKGPQNQVGAGTTTGLFGSSPATSSATGLFSSSTTNSGFAYGQNKTAFGTSTTGFGTNPGGLFGQQNQQTTSLFSKPFGQATTTQNTGFSFGNTSTIGQPSTNTMGLFGVTQASQPGGLFGTATNTSTGTAFGTGTGLFGQTNTGFGAVGSTLFGNNKLTTFGSSTTSAPSFGTTSGGLFGNKPTLTLGTNTNTSNFGFGTNTSGNSIFGSKPAPGTLGTGLGAGFGTALGAGQASLFGNNQPKIGGPLGTGAFGAPGFNTTTATLGFGAPQAPVALTDPNASAAQQAVLQQHINSLTYSPFGDSPLFRNPMSDPKKKEERLKPTNPAAQKALTTPTHYKLTPRPATRVRPKALQTTGTAKSHLFDGLDDDEPSLANGAFMPKKSIKKLVLKNLNNSNLFSPVNRDSENLASPSEYPENGERFSFLSKPVDENHQQDGDEDSLVSHFYTNPIAKPIPQTPESAGNKHSNSNSVDDTIVALNMRAALRNGLEGSSEETSFHDESLQDDREEIENNSYHMHPAGIILTKVGYYTIPSMDDLAKITNEKGECIVSDFTIGRKGYGSIYFEGDVNLTNLNLDDIVHIRRKEVVVYLDDNQKPPVGEGLNRKAEVTLDGVWPTDKTSRCLIKSPDRLADINYEGRLEAVSRKQGAQFKEYRPETGSWVFKVSHF
[2]
  binding: binds

B3: Rae1 (protein, UniProt P78406 1-368)
chain: MSLFGTTSGFGTSGTSMFGSATTDNHNPMKDIEVTSSPDDSIGCLSFSPPTLPGNFLIAGSWANDVRCWEVQDSGQTIPKAQQMHTGPVLDVCWSDDGSKVFTASCDKTAKMWDLSSNQAIQIAQHDAPVKTIHWIKAPNYSCVMTGSWDKTLKFWDTRSSNPMMVLQLPERCYCADVIYPMAVVATAERGLIVYQLENQPSEFRRIESPLKHQHRCVAIFKDKQNKPTGFALGSIEGRVAIHYINPPNPAKDNFTFKCHRSNGTNTSAPQDIYAVNGIAFHPVHGTLATVGSDGRFSFWDKDARTKLKTSEQLDQPISACCFNHNGNIFAYASSYDWSKGHEFYNPQKKNYIFLRNAAEELKPRNKK
[3]
  binding: binds

No constants are given. Whether binding was seen depends on the method and setting. Binding seen in cells or lysates may run through a third protein. These calls come from enrichment with a bait or labelling near it, and not all partners need be listed. For part of these data: Sequences can lack the tags named with a protein.
